{
  "source": "patent US20200399632A1",
  "about": "“SENSOR SYSTEMS” (enEvolv, Inc., priority 2018, published 2020)",
  "assay": "Diffusion from droplets into the oil analyzed by HPLC",
  "assay_type": "physicochemical",
  "details": "data not shown",
  "note": "Some entries share one result that the patent states for a list of compounds. At least one structure is not confirmed: it was looked up by name or label, or the drawing left a doubt.",
  "data": [
    {"molecule": "O=C(O)/C=C/c1ccc(O)cc1", "note": "[coumarate]", "values": [
      {"measurement": "diffusion into the oil", "value": "< 20", "unit": "%"}
    ]}
  ]
}
